Reference: the supplement of paper PMC10849652
This is one part of the list.

By UniProt entry, the sequences of proteins in these tests, tags left out. Where a name states a change or a piece, a line headed by the entry shows the natural chain unless it says otherwise.
UniProt P98153: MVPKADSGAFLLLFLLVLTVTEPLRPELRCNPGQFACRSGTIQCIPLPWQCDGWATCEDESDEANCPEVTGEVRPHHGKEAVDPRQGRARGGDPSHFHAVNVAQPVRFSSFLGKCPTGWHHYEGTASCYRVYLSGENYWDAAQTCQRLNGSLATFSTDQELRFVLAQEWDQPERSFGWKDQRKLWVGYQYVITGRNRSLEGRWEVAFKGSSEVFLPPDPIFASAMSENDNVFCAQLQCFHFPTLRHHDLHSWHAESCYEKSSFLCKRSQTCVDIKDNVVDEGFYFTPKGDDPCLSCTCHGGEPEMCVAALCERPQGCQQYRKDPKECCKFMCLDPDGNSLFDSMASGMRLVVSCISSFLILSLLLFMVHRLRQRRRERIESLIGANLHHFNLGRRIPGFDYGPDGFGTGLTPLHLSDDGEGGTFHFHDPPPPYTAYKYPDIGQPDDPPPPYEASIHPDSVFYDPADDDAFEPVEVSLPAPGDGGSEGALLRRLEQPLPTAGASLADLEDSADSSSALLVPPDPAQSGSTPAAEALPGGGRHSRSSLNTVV
UniProt Q92499: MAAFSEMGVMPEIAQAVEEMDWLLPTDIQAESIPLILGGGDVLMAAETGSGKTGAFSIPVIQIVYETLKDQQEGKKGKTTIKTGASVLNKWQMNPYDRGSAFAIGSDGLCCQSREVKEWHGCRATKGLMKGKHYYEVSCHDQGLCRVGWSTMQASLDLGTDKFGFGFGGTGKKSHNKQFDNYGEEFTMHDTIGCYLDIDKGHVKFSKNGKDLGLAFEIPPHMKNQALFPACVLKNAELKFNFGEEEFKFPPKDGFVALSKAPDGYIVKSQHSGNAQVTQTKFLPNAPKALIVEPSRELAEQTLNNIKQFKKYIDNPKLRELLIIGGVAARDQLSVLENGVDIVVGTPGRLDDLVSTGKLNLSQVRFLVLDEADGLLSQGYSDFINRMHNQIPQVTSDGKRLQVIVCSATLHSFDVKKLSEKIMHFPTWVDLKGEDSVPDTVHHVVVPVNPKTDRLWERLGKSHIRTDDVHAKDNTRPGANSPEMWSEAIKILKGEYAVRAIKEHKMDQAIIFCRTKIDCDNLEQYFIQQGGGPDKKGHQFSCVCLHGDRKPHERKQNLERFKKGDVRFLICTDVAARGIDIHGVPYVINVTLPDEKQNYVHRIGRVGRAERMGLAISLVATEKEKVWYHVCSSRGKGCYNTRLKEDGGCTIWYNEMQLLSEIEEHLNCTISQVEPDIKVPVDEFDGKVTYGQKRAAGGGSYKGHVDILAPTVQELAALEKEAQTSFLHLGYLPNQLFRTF
UniProt Q5VZ89: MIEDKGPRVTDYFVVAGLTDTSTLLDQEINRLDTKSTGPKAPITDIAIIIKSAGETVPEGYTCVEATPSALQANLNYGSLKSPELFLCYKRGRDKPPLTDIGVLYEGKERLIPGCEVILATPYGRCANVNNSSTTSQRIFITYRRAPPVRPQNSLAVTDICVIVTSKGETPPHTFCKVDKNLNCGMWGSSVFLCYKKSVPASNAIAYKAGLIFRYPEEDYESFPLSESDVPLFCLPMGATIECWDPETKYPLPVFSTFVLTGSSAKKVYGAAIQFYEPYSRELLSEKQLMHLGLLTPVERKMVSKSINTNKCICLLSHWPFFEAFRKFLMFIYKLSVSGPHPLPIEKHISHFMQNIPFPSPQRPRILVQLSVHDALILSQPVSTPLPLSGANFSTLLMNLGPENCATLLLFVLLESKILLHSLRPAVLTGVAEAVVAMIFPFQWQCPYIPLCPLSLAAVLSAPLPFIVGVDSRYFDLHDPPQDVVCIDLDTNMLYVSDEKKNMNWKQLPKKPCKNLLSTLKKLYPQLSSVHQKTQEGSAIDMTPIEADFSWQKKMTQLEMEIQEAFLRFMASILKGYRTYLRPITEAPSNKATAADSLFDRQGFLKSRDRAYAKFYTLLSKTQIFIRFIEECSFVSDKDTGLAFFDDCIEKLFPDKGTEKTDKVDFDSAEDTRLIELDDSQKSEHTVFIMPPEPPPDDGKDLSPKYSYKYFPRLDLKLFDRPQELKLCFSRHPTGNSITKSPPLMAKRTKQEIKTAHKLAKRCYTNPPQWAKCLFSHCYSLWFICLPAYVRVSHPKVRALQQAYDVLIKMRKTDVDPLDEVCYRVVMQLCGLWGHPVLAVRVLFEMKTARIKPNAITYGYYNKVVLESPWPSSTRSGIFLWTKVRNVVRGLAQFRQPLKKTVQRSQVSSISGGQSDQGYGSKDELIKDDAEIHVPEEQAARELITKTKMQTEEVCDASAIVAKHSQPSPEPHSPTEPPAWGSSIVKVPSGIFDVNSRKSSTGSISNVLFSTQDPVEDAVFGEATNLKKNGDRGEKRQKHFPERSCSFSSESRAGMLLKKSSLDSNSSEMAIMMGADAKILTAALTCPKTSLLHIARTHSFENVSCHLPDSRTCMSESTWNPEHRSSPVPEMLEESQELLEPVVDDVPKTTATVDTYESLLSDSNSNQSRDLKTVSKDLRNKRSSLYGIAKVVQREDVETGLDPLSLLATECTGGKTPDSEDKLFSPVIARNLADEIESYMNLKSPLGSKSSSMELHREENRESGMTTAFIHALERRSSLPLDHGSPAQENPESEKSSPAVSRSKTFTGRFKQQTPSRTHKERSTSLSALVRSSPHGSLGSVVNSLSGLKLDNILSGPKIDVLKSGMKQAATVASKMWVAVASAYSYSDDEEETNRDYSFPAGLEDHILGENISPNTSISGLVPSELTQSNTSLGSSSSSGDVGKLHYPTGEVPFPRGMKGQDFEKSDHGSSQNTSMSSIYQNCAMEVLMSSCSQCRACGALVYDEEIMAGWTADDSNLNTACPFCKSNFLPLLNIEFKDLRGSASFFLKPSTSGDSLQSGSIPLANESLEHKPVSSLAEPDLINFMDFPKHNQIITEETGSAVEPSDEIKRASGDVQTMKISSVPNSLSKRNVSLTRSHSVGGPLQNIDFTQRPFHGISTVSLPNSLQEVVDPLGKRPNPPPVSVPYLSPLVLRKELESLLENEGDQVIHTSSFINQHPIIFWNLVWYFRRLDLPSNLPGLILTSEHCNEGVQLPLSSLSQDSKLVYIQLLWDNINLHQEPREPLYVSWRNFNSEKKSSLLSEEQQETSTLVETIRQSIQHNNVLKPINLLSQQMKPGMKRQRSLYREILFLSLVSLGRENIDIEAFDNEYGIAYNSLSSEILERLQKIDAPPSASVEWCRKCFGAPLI
UniProt Q7L2E3: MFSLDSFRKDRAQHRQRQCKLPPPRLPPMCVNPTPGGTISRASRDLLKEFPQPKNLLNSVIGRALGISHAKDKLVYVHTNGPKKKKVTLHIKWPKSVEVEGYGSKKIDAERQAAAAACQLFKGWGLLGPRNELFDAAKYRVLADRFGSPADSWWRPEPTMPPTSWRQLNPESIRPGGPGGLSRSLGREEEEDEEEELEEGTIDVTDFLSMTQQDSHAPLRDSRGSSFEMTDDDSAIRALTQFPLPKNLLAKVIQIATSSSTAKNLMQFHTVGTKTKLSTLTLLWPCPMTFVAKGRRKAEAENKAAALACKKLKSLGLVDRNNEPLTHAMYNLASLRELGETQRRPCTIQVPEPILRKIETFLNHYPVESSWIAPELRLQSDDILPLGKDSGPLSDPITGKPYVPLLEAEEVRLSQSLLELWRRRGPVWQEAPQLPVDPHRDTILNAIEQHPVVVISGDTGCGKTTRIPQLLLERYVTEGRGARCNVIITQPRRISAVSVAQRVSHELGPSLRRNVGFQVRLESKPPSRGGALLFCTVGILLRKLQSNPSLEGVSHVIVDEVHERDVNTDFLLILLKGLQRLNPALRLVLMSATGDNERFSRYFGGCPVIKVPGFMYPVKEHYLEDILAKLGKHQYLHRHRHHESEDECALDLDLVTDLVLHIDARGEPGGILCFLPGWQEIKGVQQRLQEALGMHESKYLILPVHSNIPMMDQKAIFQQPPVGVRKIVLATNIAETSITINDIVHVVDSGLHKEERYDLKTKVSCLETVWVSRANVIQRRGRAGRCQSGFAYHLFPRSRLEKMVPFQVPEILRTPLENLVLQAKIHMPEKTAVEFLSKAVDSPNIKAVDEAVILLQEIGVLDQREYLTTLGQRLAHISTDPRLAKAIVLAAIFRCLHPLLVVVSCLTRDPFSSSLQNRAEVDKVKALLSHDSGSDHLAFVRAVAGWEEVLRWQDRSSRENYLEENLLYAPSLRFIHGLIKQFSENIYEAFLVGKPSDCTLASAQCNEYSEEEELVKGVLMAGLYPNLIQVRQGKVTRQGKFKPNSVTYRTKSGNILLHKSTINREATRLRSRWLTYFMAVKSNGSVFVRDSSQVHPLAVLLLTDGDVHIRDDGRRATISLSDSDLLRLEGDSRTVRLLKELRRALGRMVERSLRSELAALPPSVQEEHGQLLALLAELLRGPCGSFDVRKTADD
UniProt Q9Y394: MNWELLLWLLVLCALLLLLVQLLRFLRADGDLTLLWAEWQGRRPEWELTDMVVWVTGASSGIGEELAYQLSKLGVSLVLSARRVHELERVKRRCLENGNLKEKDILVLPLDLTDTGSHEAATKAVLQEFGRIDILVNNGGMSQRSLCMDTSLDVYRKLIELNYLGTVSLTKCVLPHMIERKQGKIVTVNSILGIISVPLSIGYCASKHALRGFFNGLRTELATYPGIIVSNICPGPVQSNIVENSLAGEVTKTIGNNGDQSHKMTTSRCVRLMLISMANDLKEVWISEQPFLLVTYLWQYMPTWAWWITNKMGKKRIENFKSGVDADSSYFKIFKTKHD
UniProt Q9NUU7: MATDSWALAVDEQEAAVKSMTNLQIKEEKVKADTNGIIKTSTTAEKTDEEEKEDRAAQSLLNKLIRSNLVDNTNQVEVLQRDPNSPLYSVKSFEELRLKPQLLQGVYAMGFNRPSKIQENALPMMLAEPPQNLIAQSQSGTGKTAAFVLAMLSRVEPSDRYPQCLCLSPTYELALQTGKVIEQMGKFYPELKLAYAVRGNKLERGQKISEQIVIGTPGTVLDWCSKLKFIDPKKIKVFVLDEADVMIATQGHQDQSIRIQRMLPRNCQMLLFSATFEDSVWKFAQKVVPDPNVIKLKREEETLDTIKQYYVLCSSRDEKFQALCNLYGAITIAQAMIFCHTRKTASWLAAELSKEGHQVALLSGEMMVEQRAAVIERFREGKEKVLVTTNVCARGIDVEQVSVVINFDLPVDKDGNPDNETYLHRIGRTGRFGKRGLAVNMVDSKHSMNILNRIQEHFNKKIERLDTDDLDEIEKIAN
UniProt O00273: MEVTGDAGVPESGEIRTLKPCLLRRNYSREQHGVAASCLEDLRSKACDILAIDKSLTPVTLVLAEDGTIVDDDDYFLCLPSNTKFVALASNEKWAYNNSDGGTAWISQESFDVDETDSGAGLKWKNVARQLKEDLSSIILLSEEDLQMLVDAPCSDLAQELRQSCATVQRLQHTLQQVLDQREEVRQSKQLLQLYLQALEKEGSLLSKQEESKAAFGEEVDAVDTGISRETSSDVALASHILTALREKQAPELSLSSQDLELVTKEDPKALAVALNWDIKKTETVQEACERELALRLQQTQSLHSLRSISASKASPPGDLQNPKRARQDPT
UniProt Q9Y2H0: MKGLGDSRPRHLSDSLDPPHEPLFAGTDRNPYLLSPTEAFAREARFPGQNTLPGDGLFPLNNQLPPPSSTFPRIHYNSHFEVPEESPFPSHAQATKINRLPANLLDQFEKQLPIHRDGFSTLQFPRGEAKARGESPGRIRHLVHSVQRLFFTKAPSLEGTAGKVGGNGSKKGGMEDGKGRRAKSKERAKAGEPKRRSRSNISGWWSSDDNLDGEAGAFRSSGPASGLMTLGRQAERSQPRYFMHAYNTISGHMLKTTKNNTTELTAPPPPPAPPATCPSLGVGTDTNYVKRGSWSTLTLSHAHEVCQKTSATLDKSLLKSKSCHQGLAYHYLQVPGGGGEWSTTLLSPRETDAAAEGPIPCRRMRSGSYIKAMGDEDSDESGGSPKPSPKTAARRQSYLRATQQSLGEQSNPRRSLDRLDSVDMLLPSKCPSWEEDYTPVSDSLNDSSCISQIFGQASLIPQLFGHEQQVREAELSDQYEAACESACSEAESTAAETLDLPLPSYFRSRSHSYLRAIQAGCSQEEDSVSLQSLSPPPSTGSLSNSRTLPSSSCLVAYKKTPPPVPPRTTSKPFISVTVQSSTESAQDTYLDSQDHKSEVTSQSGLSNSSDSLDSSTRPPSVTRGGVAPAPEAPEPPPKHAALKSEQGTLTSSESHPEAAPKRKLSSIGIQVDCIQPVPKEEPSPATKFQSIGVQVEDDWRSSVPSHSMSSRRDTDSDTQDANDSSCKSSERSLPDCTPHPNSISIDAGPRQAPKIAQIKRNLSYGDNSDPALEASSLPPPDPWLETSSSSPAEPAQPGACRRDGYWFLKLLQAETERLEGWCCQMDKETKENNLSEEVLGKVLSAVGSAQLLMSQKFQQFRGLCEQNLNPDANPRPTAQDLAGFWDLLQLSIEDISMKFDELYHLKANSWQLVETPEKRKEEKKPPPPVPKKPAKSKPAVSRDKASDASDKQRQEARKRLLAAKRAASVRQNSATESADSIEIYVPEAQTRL

Legend:
Experiment in all cases: log2 fold change, soluble protein after heating vs DMSO (PISA); higher = thermal stabilisation; K562 cells, 10 uM, 30 min; active = over 0.2 and 3.5 SD of the protein, either way, in both replicates (recomputed)
[1] = compound: CS(=O)(=O)c1ccc(-c2cnc(N)c(C(=O)Nc3ccccc3)n2)cc1
Outline: (§1)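 Soluble protein was defined as the supernatant after 21,000xg for 90 min. It came from K562 cells at 2×10^6 cells/mL given 10 μM compound for 30 min, heated in aliquots for 3 min across 48°C-58°C, pooled, and extracted in PBS with 0.5% NP-40 at 4°C, and was quantified by TMTpro 16plex LC-MS/MS with equalised channel sums. Thermal stability against control samples, from duplicates, is reported as log2 fold change.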

crizotinib = compound: C[C@@H](Oc1cc(-c2cnn(C3CCNCC3)c2)cnc1N)c1c(Cl)ccc(F)c1Cl [crizotinib]
Outline: as §1

[2] = compound: C[C@@H]1COCCN1C2=NC(=NC(=C2)C3(CC3)S(=O)(=O)C)C4=C5C=CNC5=CC=C4
Outline: as §1

[3] = compound: C[C@H](C1=CC=C(C=C1)C(=O)NC2=C3C=CNC3=NC=C2)N
Outline: as §1

duvelisib = compound: C[C@H](Nc1ncnc2nc[nH]c12)c1cc2cccc(Cl)c2c(=O)n1-c1ccccc1 [duvelisib]
Outline: as §1

gandotinib = compound: Cc1cc(Nc2cc(CN3CCOCC3)c3nc(C)c(Cc4ccc(Cl)cc4F)n3n2)n[nH]1 [gandotinib]
Outline: as §1

tozasertib = compound: Cc1cc(Nc2cc(N3CCN(C)CC3)nc(Sc3ccc(NC(=O)C4CC4)cc3)n2)n[nH]1 [tozasertib]
Outline: as §1

[4] = compound: Cc1cc(SCc2sc(-c3ccc(C(F)(F)F)cc3)nc2C)ccc1OCC(=O)O
Outline: as §1

doramapimod = compound: Cc1ccc(-n2nc(C(C)(C)C)cc2NC(=O)Nc2ccc(OCCN3CCOCC3)c3ccccc23)cc1 [doramapimod]
Outline: as §1

ispinesib = compound: Cc1ccc(C(=O)N(CCCN)[C@@H](c2nc3cc(Cl)ccc3c(=O)n2Cc2ccccc2)C(C)C)cc1 [ispinesib]
Outline: as §1

bafetinib = compound: Cc1ccc(NC(=O)c2ccc(CN3CC[C@H](N(C)C)C3)c(C(F)(F)F)c2)cc1Nc1nccc(-c2cncnc2)n1 [bafetinib]
Outline: as §1

[5] = compound: Cc1cccc(CC(=O)N2CCc3c2ccc(-c2cn(C)c4ncnc(N)c24)c3F)n1
Outline: as §1

nilotinib = compound: Cc1cn(-c2cc(NC(=O)c3ccc(C)c(Nc4nccc(-c5cccnc5)n4)c3)cc(C(F)(F)F)c2)cn1 [nilotinib]
Outline: as §1

[6] = compound: Cc1nc(Nc2n[nH]c3c2CN(C(=O)N[C@H](CN(C)C)c2ccccc2)C3(C)C)c2sccc2n1
Outline: as §1

dasatinib = compound: Cc1nc(Nc2ncc(C(=O)Nc3c(C)cccc3Cl)s2)cc(N2CCN(CCO)CC2)n1 [dasatinib]
Outline: as §1

[7] = compound: Cc1ncc(-c2ccnc(Nc3ccc(S(C)(=O)=O)cc3)n2)n1C(C)C
Outline: as §1

[8] = compound: Cn1cc(-c2ccc3c(c2)CCN3C(=O)Cc2cccc(C(F)(F)F)c2)c2c(N)ncnc21
Outline: as §1

[9] = compound: Cn1cc(-c2ccc3nnc(C(F)(F)c4ccc5ncccc5c4)n3n2)cn1
Outline: as §1

tipifarnib = compound: Cn1cncc1[C@@](N)(c1ccc(Cl)cc1)c1ccc2c(c1)c(-c1cccc(Cl)c1)cc(=O)n2C [tipifarnib]
Outline: as §1

mubritinib = compound: FC(F)(F)c1ccc(/C=C/c2nc(COc3ccc(CCCCn4ccnn4)cc3)co2)cc1 [mubritinib]
Outline: as §1

Measured: log2 fold change

DIS3L2 (UniProt Q8IYB7)
inactive: [1] -0.017 | crizotinib 0.096 | [2] -0.018 | [3] 0.116 | duvelisib -0.079 | gandotinib 0.048 | tozasertib -0.009 | [4] 0.018 | doramapimod 0.052 | ispinesib -0.009 | bafetinib -0.03 | [5] -0.031 | nilotinib -0.014 | [6] 0.09 | dasatinib 0.035 | [7] -0.037 | [8] 0.041 | [9] -0.054 | tipifarnib 0.057 | mubritinib 0.068

DGKZ (UniProt Q13574)
inactive: [1] 0.04 | crizotinib -0.032 | [2] -0.003 | [3] 0.045 | duvelisib -0.028 | gandotinib -0.024 | tozasertib -0.018 | [4] 0.018 | doramapimod 0.049 | ispinesib -0.019 | bafetinib -0.028 | [5] 0.018 | nilotinib -0.035 | [6] -0.064 | dasatinib -0.008 | [7] 0.108 | [8] -0.048 | [9] -0.101 | tipifarnib 0.091 | mubritinib -0.028

DGCR2 (UniProt P98153)
inactive: [1] 0.03 | crizotinib -0.014 | [2] -0.025 | [3] 0.067 | duvelisib 0.062 | gandotinib 0.085 | tozasertib -0.045 | [4] -0.093 | doramapimod 0.049 | ispinesib 0.039 | bafetinib -0.156 | [5] -0.017 | nilotinib -0.021 | [6] -0.013 | dasatinib 0.069 | [7] 0.069 | [8] -0.006 | [9] -0.157 | tipifarnib -0.008 | mubritinib -0.043

DEK (UniProt P35659)
inactive: [1] 0.042 | crizotinib 0.078 | [2] 0.075 | [3] -0.088 | duvelisib 0.1 | gandotinib -0.063 | tozasertib 0.059 | [4] 0.107 | doramapimod -0.121 | ispinesib -0.02 | bafetinib 0.007 | [5] 0.02 | nilotinib -0.082 | [6] -0.01 | dasatinib -0.064 | [7] 0.012 | [8] 0.034 | [9] 0.046 | tipifarnib -0.052 | mubritinib 0.012

DDX1 (UniProt Q92499)
inactive: [1] 0.008 | crizotinib -0.079 | [2] -0.138 | [3] 0.223 | duvelisib -0.042 | gandotinib 0.071 | tozasertib 0.035 | [4] 0.067 | doramapimod 0.168 | ispinesib -0.031 | bafetinib 0.195 | [5] 0.034 | nilotinib 0.031 | [6] 0.01 | dasatinib -0.027 | [7] 0.018 | [8] -0.066 | [9] -0.098 | tipifarnib -0.089 | mubritinib -0.038

DENND4C isoform 7 (UniProt Q5VZ89)
inactive: [1] -0.026 | crizotinib -0.113 | [2] 0.014 | [3] 0.035 | duvelisib -0.054 | gandotinib -0.038 | tozasertib 0.014 | [4] -0.124 | doramapimod -0.044 | ispinesib -0.211 | bafetinib -0.019 | [5] 0.11 | nilotinib -0.074 | [6] -0.187 | dasatinib -0.037 | [7] 0.002 | [8] 0.084 | [9] 0.009 | tipifarnib -0.032 | mubritinib 0.092

DHX30 isoform 2 (UniProt Q7L2E3)
inactive: [1] -0.07 | crizotinib -0.07 | [2] -0.264 | [3] 0.316 | duvelisib -0.138 | gandotinib 0.131 | tozasertib -0.02 | [4] 0.063 | doramapimod 0.055 | ispinesib -0.258 | bafetinib 0.066 | [5] 0.018 | nilotinib -0.026 | [6] -0.13 | dasatinib 0.02 | [7] 0.105 | [8] -0.182 | [9] -0.097 | tipifarnib 0.032 | mubritinib -0.091

DHRS7 (UniProt Q9Y394)
inactive: [1] -0.024 | crizotinib 0.036 | [2] -0.027 | [3] -0.037 | duvelisib 0.03 | gandotinib 0.068 | tozasertib -0.051 | [4] -0.025 | doramapimod 0.011 | ispinesib 0.075 | bafetinib -0.03 | [5] -0.02 | nilotinib -0.017 | [6] 0.009 | dasatinib 0.032 | [7] 0.025 | [8] -0.002 | [9] 0.023 | tipifarnib 0.051 | mubritinib 0.01

Copied from above (2 entries):
DENND4C isoform 7 (UniProt Q5VZ89)
inactive: [1] -0.026 | crizotinib -0.113 | [2] 0.014 | [3] 0.035 | duvelisib -0.054 | gandotinib -0.038 | tozasertib 0.014 | [4] -0.124 | doramapimod -0.044 | ispinesib -0.211 | bafetinib -0.019 | [5] 0.11 | nilotinib -0.074 | [6] -0.187 | dasatinib -0.037 | [7] 0.002 | [8] 0.084 | [9] 0.009 | tipifarnib -0.032 | mubritinib 0.092

DHX30 isoform 2 (UniProt Q7L2E3)
inactive: [1] -0.07 | crizotinib -0.07 | [2] -0.264 | [3] 0.316 | duvelisib -0.138 | gandotinib 0.131 | tozasertib -0.02 | [4] 0.063 | doramapimod 0.055 | ispinesib -0.258 | bafetinib 0.066 | [5] 0.018 | nilotinib -0.026 | [6] -0.13 | dasatinib 0.02 | [7] 0.105 | [8] -0.182 | [9] -0.097 | tipifarnib 0.032 | mubritinib -0.091

(next part)

DDX19A (UniProt Q9NUU7)
inactive: [1] 0.035 | crizotinib -0.018 | [2] 0.044 | [3] -0.082 | duvelisib -0.009 | gandotinib 0.032 | tozasertib 0.01 | [4] -0.029 | doramapimod -0.026 | ispinesib 0.014 | bafetinib -0.102 | [5] -0.048 | nilotinib -0.082 | [6] -0.099 | dasatinib -0.09 | [7] -0.004 | [8] 0.048 | [9] 0.003 | tipifarnib -0.093 | mubritinib -0.113

DHX8 (UniProt Q14562)
inactive: [1] 0.015 | crizotinib 0.004 | [2] 0.041 | [3] 0.139 | duvelisib 0.135 | gandotinib -0.135 | tozasertib -0.004 | [4] -0.049 | doramapimod 0.033 | ispinesib 0 | bafetinib -0.034 | [5] -0.229 | nilotinib -0.054 | [6] 0.07 | dasatinib 0.028 | [7] -0.055 | [8] -0.008 | [9] 0.049 | tipifarnib 0.071 | mubritinib 0.009

DERL1 (UniProt Q9BUN8)
inactive: [1] -0.01 | crizotinib 0.043 | [2] -0.12 | [3] -0.046 | duvelisib 0.041 | gandotinib 0.037 | tozasertib -0.045 | [4] -0.11 | doramapimod -0.066 | ispinesib 0.003 | bafetinib -0.008 | [5] 0.132 | nilotinib 0.001 | [6] -0.132 | dasatinib 0.006 | [7] -0.013 | [8] 0.027 | [9] 0.092 | tipifarnib 0.096 | mubritinib 0.107

DERL2 (UniProt Q9GZP9)
inactive: [1] 0.005 | crizotinib 0.019 | [2] -0.034 | [3] -0.059 | duvelisib 0.292 | gandotinib -0.053 | tozasertib 0.044 | [4] 0.078 | doramapimod 0.029 | ispinesib 0.065 | bafetinib -0.102 | [5] -0.196 | nilotinib -0.1 | [6] -0.198 | dasatinib 0.151 | [7] 0.056 | [8] 0.094 | [9] 0.04 | tipifarnib 0.279 | mubritinib -0.016

DFFA (UniProt O00273)
inactive: [1] 0.012 | crizotinib 0.022 | [2] 0.09 | [3] -0.069 | duvelisib 0.003 | gandotinib -0.024 | tozasertib -0.015 | [4] -0.01 | doramapimod 0.003 | ispinesib 0.052 | bafetinib -0.021 | [5] 0.006 | nilotinib -0.008 | [6] 0.037 | dasatinib 0.033 | [7] 0.003 | [8] 0.026 | [9] -0.012 | tipifarnib -0.01 | mubritinib -0.024

DENND1C (UniProt Q8IV53)
inactive: [1] -0.033

DGUOK (UniProt Q16854)
inactive: [1] 0.019 | crizotinib 0.039 | [2] -0.084 | [3] -0.031 | duvelisib 0.028 | gandotinib -0.054 | tozasertib -0.018 | [4] 0.032 | doramapimod -0.049 | ispinesib 0.02 | bafetinib -0.099 | [5] -0.104 | nilotinib 0.011 | [6] 0.004 | dasatinib 0.045 | [7] -0.032 | [8] -0.007 | [9] 0.038 | tipifarnib 0.051 | mubritinib 0.018

DLGAP4 (UniProt Q9Y2H0)
inactive: [1] -0.017 | crizotinib 0.02 | [2] 0.031 | [3] 0.02 | duvelisib -0.037 | gandotinib 0.002 | tozasertib 0 | [4] 0.056 | doramapimod -0.009 | ispinesib 0.05 | bafetinib -0.044 | [5] -0.016 | nilotinib 0.027 | [6] -0.054 | dasatinib -0.038 | [7] -0.014 | [8] -0.023 | [9] -0.04 | tipifarnib 0.027 | mubritinib 0.047

DHDDS isoform 2 (UniProt Q86SQ9)
inactive: [1] 0 | crizotinib 0.115 | [2] 0.018 | [3] 0.027 | duvelisib 0.061 | gandotinib 0.046 | tozasertib 0.018 | [4] -0.05 | doramapimod 0.046 | ispinesib 0.112 | bafetinib -0.013 | [5] -0.04 | nilotinib 0.029 | [6] 0.045 | dasatinib -0.022 | [7] -0.022 | [8] -0.006 | [9] 0.021 | tipifarnib -0.023 | mubritinib 0.072
